{"source": "patent US20250163113A1", "about": "“PEPTIDES TARGETING THE INTERACTION BETWEEN KINDLIN-1 AND Beta-INTEGRIN” (INSTITUT CURIE, priority 2022, published 2025)", "key": {"EGFR [1]": {"test_system": "EGFR", "test": "Western blot of EGFR phosphorylation after EGF stimulation in BT-20 cells", "assay_type": "cell-based, human", "settings": "BT-20, Kindpep1 20 h, EGF 100 ng/ml for 15 min"}, "β1-integrin [2]": {"target": "T1, β1-integrin (Homo sapiens, UniProt P05556)", "T1 construct": "endogenous in cells; host or cells: MDA MB 231 human breast cancer cells", "test": "Immunofluorescence of active β1-integrin (9EG7) in MDA MB 231 cells", "assay_type": "cell-based", "settings": "MDA MB 231, 200 μM, 15 hours"}, "EGFR [3]": {"test_system": "EGFR", "test": "EGFR immunostaining (internalization) in BT-20 cells", "assay_type": "cell-based, human", "settings": "BT-20, Kindpep1 20 h, 2 ng/ml EGF"}, "β1-integrin [4]": {"target": "T1, β1-integrin", "test": "Flow cytometry of cell-surface active β1-integrin (9EG7) in MDA MB 231 cells", "assay_type": "cell-based", "settings": "MDA MB 231, Kindpep1 200 μM", "procedure": "FIG. 3: Kindpep1 reduces β1-integrin activation. Fluorescence activated sorter (FACS) histograms (top) and the corresponding bar graphs showing the mean fluorescence intensity (MFI) of cell-surface active β-1 integrin (9EG7 staining) of MDA MB 231 cells untreated, treated with Kindpep1 (200 μM) for 15 h or treated with 2 mM MnCl2.\nTo quantify the expression levels of integrins, cultured cells were trypsinized, washed and incubated for 1 h at 4° C. in phosphate-buffered saline (PBS) containing 150 mM NaCl and 1% BSA with the rat anti-1 integrin (9EG7 clone, 1:300) primary antibodies obtained from BD Biosciences. Cells were then washed 3 times, incubated with Alexa Fluor 488-conjugated secondary antibody for 1 h at 4° C. and washed. 1×10^4 cells were analyzed on a FACS Calibur. The mean fluorescence intensity of each sample was obtained using the Flowing software 2.\nThe effect of Kindpep1 on β1-integrin activation was confirmed by performing the same immunofluorescence assays using the human breast cancer cell line MDA MB 231, characterized by a high Kindlin-1 protein endogeneous expression."}, "MDA-MB-231 cells [5]": {"test_system": "MDA-MB-231 cells", "test": "Transwell invasion assay", "assay_type": "cell-based, human", "settings": "100 and 200 μM"}, "[6]": {"test_system": "EGFR and KRAS-dependent versus independent cell lines", "test": "CellTiter-Glo cell viability in EGFR and KRAS-dependent versus independent cancer cell lines", "assay_type": "cell-based, human"}, "MDA-MB-231 cells [7]": {"test_system": "MDA-MB-231 cells", "test": "FITC-gelatin matrix degradation assay", "assay_type": "cell-based, human", "settings": "100 μM, 24 hours; control cells 2204 μm^3"}, "[8]": {"test_system": "triple negative breast cancer PDX", "test": "Triple negative breast cancer patient derived xenograft (PDX) model", "assay_type": "in vivo", "settings": "10 mg/Kg intraperitoneal 5 days per week, compared to the controls", "procedure": "FIG. 6: Kindpep1 reduces the metastatic spread in a breast cancer PDX model. A. Diagram presenting the course of the experiment. B Quantification of the number of metastatic nodules found in the lungs of control and Kindpep1 treated mice. Mean±SEM are represented. Statistical analyses were performed by a t-test.\nThe triple negative breast cancer PDX model expressing high levels of Kindlin-1 was obtained from the Laboratoire d'Investigation Pré-clinique. Informed consent was obtained from patient before xenograft establishment. When tumor reached a volume of 60 to 200 mm^3, mice were randomly assigned to the control or treated group. Kindpep1 was administrated by intraperitoneal injection at a dose of 10 mg/kg 5 times a week. The vehicle alone (Nacl 0.9%) was administered to the control group following the same treatment regimen as with the drug. The control and treated group consisted of 10 mice each.\nThen, a triple negative breast cancer patient derived xenograft (PDX) model previously characterized as highly metastatic and presenting high expression levels of Kindlin-1 was chosen. Tumor fragments were grafted into the interscapular fat pad of female nude immunodeficient mice and 5 days later the treatment started. […] The treatment was administered by intraperitoneal injections 5 days per week and tumor growth was monitored until reaching the ethical size, i.e. 2 cm^3 (FIG. 6A). […]"}, "4T1-luc cells": {"test_system": "4T1-luc cells", "test": "4T1-luc metastatic breast cancer model in BALB/c mice", "assay_type": "in vivo", "description": "FIG. 5: Kindpep1 reduces tumor growth and metastatic spread in breast cancer in vivo. A. Diagram presenting the course of the experiment. B. Corresponding relative tumor growth graph to bioluminescence images of tumors at day 25. C. Corresponding graph showing the quantification of the total area of metastatic nodules found in the different groups of mice to bioluminescence images of metastasis at day 25. Area ph/s/group stands for area photon/second/group.\n4T1-luc model: 1×10^5 4T1-luc cells were inoculated subcutaneously in the flanks of 6-week old female BALB/c mice (n=28). Eleven days after tumor cell inoculation, […] mice were randomly assigned to receive intraperitoneal injection of Kindpep1 (2, 10 or 50 mg/kg) or placebo (PBS). The tumor growth and the progression of metastatic lesions were also weekly monitored by bioluminescence imaging of animals using the Nightowl imaging system. On day 25 after tumor cell inoculation, anesthetized mice were sacrificed by cervical dislocation.\nThese observations prompted the investigation of the effects of Kindpep1 in vivo. […] Thus, the effects of Kindpep1 on tumor dissemination in a metastatic breast cancer model was studied. 4T1 cells were used because they have a high Kindlin-1 expression and have been also described to form lung metastasis in vivo. […]"}, "[9]": {"target": "T2, Kindlin-1/β1-integrin complex (Homo sapiens, UniProt P05556)", "T2 construct": "Myc; expressed in transfected cells; host or cells: HEK293", "test": "Co-immunoprecipitation competition assay of Kindlin-1/β1-integrin complex in transfected HEK293 cells", "assay_type": "cell-based", "settings": "HEK293 cells expressing Flag-Kindlin-1 and Myc-β1-integrin, 100 μM, 24 h"}, "MDA MB 231": {"test_system": "MDA MB 231", "test": "MTS proliferation assay", "assay_type": "cell-based, human", "settings": "every 24 hours for 96 hours"}, "[10]": {"test_system": "H358 lung cancer cell line", "test": "NCI-H358 KRAS-dependent lung cancer xenograft mouse model", "assay_type": "in vivo", "settings": "10 mg/Kg intraperitoneal 5 days per week, end of the treatment; control group 1042 mm^3; p=0.01", "procedure": "FIG. 9: Kindpep decreases tumor growth of KRAS-dependent tumors in vivo. A. Diagram presenting the course of the experiment. B. Scatter plot showing the tumor volume of the different mice of the control and Kindpep1 treated groups, at the end of the treatment. Mean±SD are represented (*p<0.05). C. Graph monitoring tumor growth of control and Kindpep1 treated mice during the course of the experiment. Mean±SD are represented.\nNCI-H358 model: 1×10^5 cells were injected subcutaneously in the flanks of 6-week old female BALB/c mice (n=10 mice for each control and treated groups). Tumor volume was measured with caliper 3 times a week. […] Tumor volumes were calculated as: Volume (cm^3)=a×b^2/2 (a and b are the two registered perpendicular diameters a>b). Tumor growth inhibition (TGI) was calculated using the following formula [1−(Vft−V0t)/(Vfc−V0c))]*100 where Vft=final volume of the treated group (at the end of the treatment); Vot=initial volume of the treatment group (at the beginning of the treatment); Vfc=final volume of the control group (at the end of the treatment); V0c=initial volume of the control group (at the beginning of the treatment).\nFinally, inventors wanted to validate in vivo the impact of Kindpep1 treatment in KRAS-dependent tumors. […] The treatment was administered by intraperitoneal injections 5 days per week and tumor growth was monitored for 50 days (FIG. 9A)."}, "MDA MB 231 cells": {"test_system": "MDA MB 231 cells", "test": "Time-lapse microscopy cell migration", "assay_type": "cell-based, human", "settings": "50, 100 and 200 μM, 16 hours; already with the smallest concentration"}}, "note": "At least one peptide structure holds a part that was inferred or is arguable (an end, a ring closure or a residue). Residues, ends and D or L forms follow the SMILES beside them.", "data": [{"smiles": "CC[C@H](C)[C@H](NC(=O)[C@H](CCCCN)NC(=O)[C@H](CCCCN)NC(=O)[C@H](CCCCN)NC(=O)[C@H](CCCCN)NC(=O)[C@@H](N)C(C)C)C(=O)N[C@@H](CCCCN)C(=O)N[C@@H](C)C(=O)N[C@@H](CCC(=O)O)C(=O)N[C@H](C(=O)N[C@@H](CCCCN)C(=O)N[C@H](C(=O)N[C@@H](CO)C(=O)N[C@@H](Cc1ccccc1)C(=O)N[C@@H](CC(C)C)C(=O)N[C@@H](CCCNC(=N)N)C(=O)N[C@@H](CCSC)C(=O)N[C@@H](CCCCN)C(=O)N[C@@H](CC(N)=O)C(=O)N[C@@H](CCCNC(=N)N)C(=O)N[C@@H](CC(N)=O)C(=O)N[C@@H](CO)C(=O)N[C@@H](C)C(=O)N[C@@H](CO)C(=O)N[C@@H](CCC(N)=O)C(=O)N[C@H](C(=O)N[C@@H](C)C(=O)N[C@@H](CO)C(=O)N[C@@H](CO)C(=O)N[C@@H](CC(C)C)C(=O)O)C(C)C)[C@@H](C)CC)[C@@H](C)CC", "note": "[Kindpep1] (H-VKKKKIKAEIKISFLRMKNRNSASQVASSL-OH)", "values": [{"measurement": "levels of phosphorylation of EGFR protein upon EGF", "setting": "EGFR [1]", "value": "decreased levels of phosphorylation of EGFR protein"}, {"measurement": "β1-integrin activation (9EG7 immunofluorescence)", "setting": "β1-integrin [2]", "value": "flagrant effect on the reduction of β1-integrin activation"}, {"measurement": "EGFR internalization", "setting": "EGFR [3]", "value": "impaired the internalization of the receptor"}, {"measurement": "levels of active β1-integrin on the cell surface (flow cytometry, 9EG7)", "setting": "β1-integrin [4]", "value": "significantly reduced the levels of active β1-integrin"}, {"measurement": "number of invasive cells (transwell)", "setting": "MDA-MB-231 cells [5]", "value": "significant decrease in the number of invasive cells"}, {"measurement": "IC50 (viability)", "setting": "[6]; 72 hours, EGFR and KRAS-dependent versus independent cell lines", "value": "significantly lower IC50"}, {"measurement": "cell viability (sensitivity to Kindpep1)", "setting": "[6]; one dependent and one independent line each of lung, pancreatic, bladder, head and neck cancers, increasing concentrations", "value": "only dependent cells were sensitive"}, {"measurement": "mean degradation area", "setting": "MDA-MB-231 cells [7]", "value": 729, "unit": "μm^3"}, {"measurement": "number of metastatic nodules in the lungs", "setting": "[8]", "value": "reduction in the number of metastatic nodules"}, {"measurement": "relative tumor volume / tumor growth", "setting": "4T1-luc cells; 50 mg/kg, end of the experiment (day 25)", "value": "decrease in tumor growth"}, {"measurement": "development of metastasis", "setting": "4T1-luc cells; 2, 10 or 50 mg/kg, bioluminescence at day 25", "value": "dose-dependent effect"}, {"measurement": "β1-integrin detected in Kindlin-1 immunoprecipitate", "setting": "[9]", "value": "undetectable"}, {"measurement": "cell proliferation (MTS)", "setting": "MDA MB 231; 50 μM", "value": "minimal"}, {"measurement": "cell proliferation (MTS)", "setting": "MDA MB 231; 100 and 200 µM", "value": "significantly impacted cell proliferation"}, {"measurement": "mean size of tumors", "setting": "[10]", "value": 372, "unit": "mm^3"}, {"measurement": "cell migration (time-lapse)", "setting": "MDA MB 231 cells", "value": "significantly impaired"}]}]}
